{"source": "PubChem BioAssay AID686938 (Drosophila RNAi Screening Center, 2013)", "test": "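Knock-downs reducing store-operated calcium influx in Drosophila cells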 (primary screen)", "system": "Drosophila S2R+ cells", "reagents": "long dsRNA against Drosophila genes, about 0.25 µg dsRNA per well, roughly 10,000 cells", "time to read-out": "5 days of knock-down before the calcium assay", "treatment": "thapsigargin (SERCA pump blocker) to empty calcium stores; entry signal taken 4 min after adding it", "measured": "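Per-well fluo-4 fluorescence in two replicates, unnormalised, measured in resting cells and 4 min after store depletion by the SERCA blocker thapsigargin; ratio of the two present in few wells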", "reading the numbers": "calcium entry signal: higher = stronger calcium signal after store depletion; resting calcium signal: higher = higher resting calcium signal", "rule for the call": "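Hit if the duplicate-averaged plate z-score for entry over resting signal is under −3; wells with weak total dye signal (Fmax z < −2) or more than 5 off-targets removed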", "meaning of the calls": "active = strongly reduced calcium entry; inactive = no strong reduction", "note": "In all, the deposit lists about 23,000 reagents; below is a random part of those that have a named target and a result. In the full data, 75 (0.33%) are marked active. 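Raw plate signals without normalisation; calls rest on plate z-scores that were not deposited; ratio present for only 364 wells.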 Entries without a mark were called inactive. Names joined by + are all predicted targets of the reagent. No sequences are given here. Not given: the dose of the treatment."}
{"gene":"Pde8 (GeneID 37741)","DRSC id":"DRSC04503","calcium entry signal, replicate 1 (fluorescence units)":4.20e7,"resting calcium signal, replicate 1 (fluorescence units)":2.22e7}
{"gene":"CG6293 (GeneID 41259)","DRSC id":"DRSC16011","calcium entry signal, replicate 1 (fluorescence units)":3.49e7,"calcium entry signal, replicate 2 (fluorescence units)":4.45e7,"resting calcium signal, replicate 1 (fluorescence units)":1.51e7,"resting calcium signal, replicate 2 (fluorescence units)":1.85e7}
{"gene":"CG13041 (GeneID 39801)","DRSC id":"DRSC09922","calcium entry signal, replicate 1 (fluorescence units)":3.66e7,"calcium entry signal, replicate 2 (fluorescence units)":4.36e7,"resting calcium signal, replicate 1 (fluorescence units)":1.77e7,"resting calcium signal, replicate 2 (fluorescence units)":2.00e7}
{"gene":"CG12817 (GeneID 41250)","DRSC id":"DRSC14555","calcium entry signal, replicate 1 (fluorescence units)":3.40e7,"calcium entry signal, replicate 2 (fluorescence units)":3.06e7,"resting calcium signal, replicate 1 (fluorescence units)":1.65e7,"resting calcium signal, replicate 2 (fluorescence units)":1.65e7}
{"gene":"CG18636 (GeneID 2768923)","DRSC id":"DRSC02685","calcium entry signal, replicate 1 (fluorescence units)":3.64e7,"calcium entry signal, replicate 2 (fluorescence units)":2.31e7,"resting calcium signal, replicate 1 (fluorescence units)":1.75e7,"resting calcium signal, replicate 2 (fluorescence units)":1.09e7}
{"gene":"Indy-2 + CG33934","DRSC id":"DRSC15685","calcium entry signal, replicate 1 (fluorescence units)":3.33e7,"calcium entry signal, replicate 2 (fluorescence units)":3.07e7,"resting calcium signal, replicate 1 (fluorescence units)":1.57e7,"resting calcium signal, replicate 2 (fluorescence units)":1.30e7}
{"gene":"Indy-2 + CG33934","DRSC id":"DRSC15686","calcium entry signal, replicate 1 (fluorescence units)":1.81e7,"calcium entry signal, replicate 2 (fluorescence units)":3.04e7,"resting calcium signal, replicate 1 (fluorescence units)":2.49e7,"resting calcium signal, replicate 2 (fluorescence units)":1.28e7}
{"gene":"Diedel (GeneID 43474)","DRSC id":"DRSC14317","calcium entry signal, replicate 1 (fluorescence units)":4.14e7,"calcium entry signal, replicate 2 (fluorescence units)":5.44e7,"resting calcium signal, replicate 1 (fluorescence units)":1.90e7,"resting calcium signal, replicate 2 (fluorescence units)":2.06e7}
{"gene":"Pcf11 (GeneID 36658)","DRSC id":"DRSC05983","calcium entry signal, replicate 1 (fluorescence units)":1.31e7,"calcium entry signal, replicate 2 (fluorescence units)":2.85e7,"resting calcium signal, replicate 1 (fluorescence units)":9.98e6,"resting calcium signal, replicate 2 (fluorescence units)":1.67e7}
{"gene":"Src64B (GeneID 48973)","DRSC id":"DRSC08700","calcium entry signal, replicate 1 (fluorescence units)":2.45e7,"calcium entry signal, replicate 2 (fluorescence units)":4.48e7,"resting calcium signal, replicate 1 (fluorescence units)":1.16e7,"resting calcium signal, replicate 2 (fluorescence units)":1.80e7}

Sorted by “calcium entry signal, replicate 1 (fluorescence units)” (descending): some entries from above.
{"gene":"CG13041 (GeneID 39801)","DRSC id":"DRSC09922","calcium entry signal, replicate 1 (fluorescence units)":3.66e7,"calcium entry signal, replicate 2 (fluorescence units)":4.36e7,"resting calcium signal, replicate 1 (fluorescence units)":1.77e7,"resting calcium signal, replicate 2 (fluorescence units)":2.00e7}
{"gene":"CG18636 (GeneID 2768923)","DRSC id":"DRSC02685","calcium entry signal, replicate 1 (fluorescence units)":3.64e7,"calcium entry signal, replicate 2 (fluorescence units)":2.31e7,"resting calcium signal, replicate 1 (fluorescence units)":1.75e7,"resting calcium signal, replicate 2 (fluorescence units)":1.09e7}
{"gene":"CG6293 (GeneID 41259)","DRSC id":"DRSC16011","calcium entry signal, replicate 1 (fluorescence units)":3.49e7,"calcium entry signal, replicate 2 (fluorescence units)":4.45e7,"resting calcium signal, replicate 1 (fluorescence units)":1.51e7,"resting calcium signal, replicate 2 (fluorescence units)":1.85e7}
{"gene":"CG12817 (GeneID 41250)","DRSC id":"DRSC14555","calcium entry signal, replicate 1 (fluorescence units)":3.40e7,"calcium entry signal, replicate 2 (fluorescence units)":3.06e7,"resting calcium signal, replicate 1 (fluorescence units)":1.65e7,"resting calcium signal, replicate 2 (fluorescence units)":1.65e7}

Continued:
{"gene":"CG9815 (GeneID 37710)","DRSC id":"DRSC04567","calcium entry signal, replicate 1 (fluorescence units)":3.59e7,"calcium entry signal, replicate 2 (fluorescence units)":4.20e7,"resting calcium signal, replicate 1 (fluorescence units)":1.96e7,"resting calcium signal, replicate 2 (fluorescence units)":1.75e7}
{"gene":"CG17168 (GeneID 3354996)","DRSC id":"DRSC20904","calcium entry signal, replicate 1 (fluorescence units)":3.64e7,"calcium entry signal, replicate 2 (fluorescence units)":4.44e7,"resting calcium signal, replicate 1 (fluorescence units)":2.25e7,"resting calcium signal, replicate 2 (fluorescence units)":1.86e7}
{"gene":"CG15876 (GeneID 38573)","DRSC id":"DRSC08484","calcium entry signal, replicate 1 (fluorescence units)":2.73e7,"calcium entry signal, replicate 2 (fluorescence units)":3.13e7,"resting calcium signal, replicate 1 (fluorescence units)":1.24e7,"resting calcium signal, replicate 2 (fluorescence units)":1.33e7}
{"gene":"eIF3g2 (GeneID 42422)","DRSC id":"DRSC14275","calcium entry signal, replicate 1 (fluorescence units)":4.24e7,"calcium entry signal, replicate 2 (fluorescence units)":4.37e7,"resting calcium signal, replicate 1 (fluorescence units)":4.53e7,"resting calcium signal, replicate 2 (fluorescence units)":1.95e7}
{"gene":"nopo (GeneID 37083)","DRSC id":"DRSC06918","calcium entry signal, replicate 1 (fluorescence units)":3.84e7,"calcium entry signal, replicate 2 (fluorescence units)":3.58e7,"resting calcium signal, replicate 1 (fluorescence units)":1.83e7,"resting calcium signal, replicate 2 (fluorescence units)":1.85e7}
{"gene":"CG7857 (GeneID 39671)","DRSC id":"DRSC10925","calcium entry signal, replicate 1 (fluorescence units)":2.91e7,"calcium entry signal, replicate 2 (fluorescence units)":5.26e7,"resting calcium signal, replicate 1 (fluorescence units)":1.55e7,"resting calcium signal, replicate 2 (fluorescence units)":2.04e7}
{"gene":"CG5776 (GeneID 34680)","DRSC id":"DRSC02891","calcium entry signal, replicate 1 (fluorescence units)":3.80e7,"resting calcium signal, replicate 1 (fluorescence units)":1.83e7}
{"gene":"link (GeneID 36509)","DRSC id":"DRSC06368","calcium entry signal, replicate 1 (fluorescence units)":2.84e7,"calcium entry signal, replicate 2 (fluorescence units)":2.38e7,"resting calcium signal, replicate 1 (fluorescence units)":1.60e7,"resting calcium signal, replicate 2 (fluorescence units)":1.27e7}
{"gene":"mRpS18C (GeneID 43609)","DRSC id":"DRSC16538","calcium entry signal, replicate 1 (fluorescence units)":3.29e7,"calcium entry signal, replicate 2 (fluorescence units)":4.73e7,"resting calcium signal, replicate 1 (fluorescence units)":1.68e7,"resting calcium signal, replicate 2 (fluorescence units)":1.93e7}
{"gene":"drongo (GeneID 33263)","DRSC id":"DRSC00814","calcium entry signal, replicate 1 (fluorescence units)":5.17e7,"resting calcium signal, replicate 1 (fluorescence units)":2.97e7}
{"gene":"Cpr47Ed (GeneID 36192)","DRSC id":"DRSC07331","calcium entry signal, replicate 1 (fluorescence units)":2.66e7,"calcium entry signal, replicate 2 (fluorescence units)":3.53e7,"resting calcium signal, replicate 1 (fluorescence units)":1.46e7,"resting calcium signal, replicate 2 (fluorescence units)":1.46e7}
{"gene":"CG14079 (GeneID 40086)","DRSC id":"DRSC10083","calcium entry signal, replicate 1 (fluorescence units)":2.51e7,"calcium entry signal, replicate 2 (fluorescence units)":4.02e7,"resting calcium signal, replicate 1 (fluorescence units)":1.21e7,"resting calcium signal, replicate 2 (fluorescence units)":1.81e7}
{"gene":"GstD9 (GeneID 41502)","DRSC id":"DRSC14185","calcium entry signal, replicate 1 (fluorescence units)":3.71e7,"calcium entry signal, replicate 2 (fluorescence units)":3.13e7,"resting calcium signal, replicate 1 (fluorescence units)":1.84e7,"resting calcium signal, replicate 2 (fluorescence units)":1.67e7}
{"gene":"CG31230 (GeneID 318637)","DRSC id":"DRSC22130","calcium entry signal, replicate 1 (fluorescence units)":1.83e7,"calcium entry signal, replicate 2 (fluorescence units)":3.03e7,"resting calcium signal, replicate 1 (fluorescence units)":9.62e6,"resting calcium signal, replicate 2 (fluorescence units)":1.62e7}
{"gene":"CG7632 (GeneID 40357)","DRSC id":"DRSC11842","calcium entry signal, replicate 1 (fluorescence units)":2.18e7,"calcium entry signal, replicate 2 (fluorescence units)":3.26e7,"resting calcium signal, replicate 1 (fluorescence units)":1.05e7,"resting calcium signal, replicate 2 (fluorescence units)":1.47e7}
{"gene":"pros (GeneID 41363)","DRSC id":"DRSC12856","calcium entry signal, replicate 1 (fluorescence units)":2.24e7,"calcium entry signal, replicate 2 (fluorescence units)":2.79e7,"resting calcium signal, replicate 1 (fluorescence units)":1.11e7,"resting calcium signal, replicate 2 (fluorescence units)":1.25e7}
{"gene":"pros (GeneID 41363)","DRSC id":"DRSC17032","calcium entry signal, replicate 1 (fluorescence units)":2.34e7,"calcium entry signal, replicate 2 (fluorescence units)":2.89e7,"resting calcium signal, replicate 1 (fluorescence units)":1.06e7,"resting calcium signal, replicate 2 (fluorescence units)":1.40e7}
{"gene":"pros (GeneID 41363)","DRSC id":"DRSC22612","calcium entry signal, replicate 1 (fluorescence units)":3.76e7,"calcium entry signal, replicate 2 (fluorescence units)":3.43e7,"resting calcium signal, replicate 1 (fluorescence units)":2.22e7,"resting calcium signal, replicate 2 (fluorescence units)":1.67e7}
